Taken from: PubChem BioAssay AID504774 (Drosophila RNAi Screening Center, 2011)

Test: 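Genes required for cells to withstand methyl methanesulphonate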 (primary screen)
Cells: Drosophila Kc167 cells
Knock-down reagent: long dsRNA against Drosophila genes, about 0.25 µg dsRNA per well
Duration: about 6 days: 3 days knock-down, then 3 days with or without MMS
Treatment: methyl methanesulphonate 0.004% (w/v) for 3 days after knock-down
Measured: 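Viability in wells given MMS, read as ATP luminescence, normalised by quantiles plate by plate and averaged across replicates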
Direction: mean viability with MMS and viability with MMS: higher = more surviving cells after MMS
The screen tested about 23,000 reagents; this is a random part of those that have a named target and a result. 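Values are quantile-normalised luminescence on an arbitrary scale; higher means more cells surviving MMS.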 The numbers tell different reagents against one gene apart. Names joined by + are all predicted targets of the reagent.

target | dsRNA no. | mean viability with MMS | viability with MMS, replicate 1 | viability with MMS, replicate 2
Ref1 (RNA and export factor binding protein 1) | 1 | 3.59e6 | 4.05e6 | 4.13e6
Ref1 (RNA and export factor binding protein 1) | 2 | 3.04e6 | 3.71e6 | 3.87e6
Sec31 (Secretory 31) | 1 | 3.53e6 | 3.99e6 | 4.00e6
CG10864 | 1 | 3.47e6 | 4.01e6 | 3.88e6
CG33203 | 1 | 3.33e6 | 3.71e6 | 3.74e6
CG33203 | 2 | 3.64e6 | 4.10e6 | 4.14e6
CG33203 | 3 | 3.62e6 | 3.93e6 | 3.82e6
CG5644 | 1 | 3.44e6 | 3.86e6 | 3.95e6
Vm26Aa (Vitelline membrane 26Aa) | 1 | 3.60e6 | 4.08e6 | 4.06e6
Sf3b2 (Splicing factor 3b subunit 2) | 1 | 2.54e6 | 2.79e6 | 3.02e6
Sec71 (Secretory 71) | 1 | 3.90e6 | 4.49e6 | 4.32e6
Cog4 (Component of oligomeric golgi complex 4) | 1 | 3.40e6 | 3.77e6 | 3.87e6
coil (coilin) | 1 | 3.63e6 | 4.19e6 | 4.06e6
Tm1 (Tropomyosin 1) | 1 | 3.49e6 | 4.07e6 | 3.87e6
Tm1 (Tropomyosin 1) | 2 | 3.56e6 | 4.07e6 | 4.01e6
Tm1 (Tropomyosin 1) | 3 | 3.55e6 | 4.04e6 | 4.02e6
CG11034 | 1 | 3.63e6 | 4.03e6 | 4.17e6
CG11034 | 2 | 3.60e6 | 4.12e6 | 4.02e6
ssp6 (short spindle 6) | 1 | 3.36e6 | 3.75e6 | 3.82e6
ssp6 (short spindle 6) | 2 | 3.57e6 | 4.20e6 | 3.89e6
CG42404 | 1 | 3.39e6 | 3.88e6 | 3.77e6
CG12851 | 1 | 3.44e6 | 3.81e6 | 3.97e6
CG17290 | 1 | 3.55e6 | 4.03e6 | 4.00e6

Records above whose gene name begins with R or r (2):
target | dsRNA no. | mean viability with MMS | viability with MMS, replicate 1 | viability with MMS, replicate 2
Ref1 (RNA and export factor binding protein 1) | 1 | 3.59e6 | 4.05e6 | 4.13e6
Ref1 (RNA and export factor binding protein 1) | 2 | 3.04e6 | 3.71e6 | 3.87e6

Further records:
target | dsRNA no. | mean viability with MMS | viability with MMS, replicate 1 | viability with MMS, replicate 2
snky (sneaky) | 1 | 3.57e6 | 4.03e6 | 4.05e6
CG34355 | 1 | 3.58e6 | 4.09e6 | 4.03e6
CG34355 | 2 | 3.70e6 | 4.10e6 | 4.28e6
CG34355 | 3 | 3.83e6 | 4.24e6 | 4.41e6
CG34355 | 4 | 3.64e6 | 4.10e6 | 4.13e6
PIG-B (Phosphatidylinositol glycan anchor biosynthesis class B) | 1 | 3.66e6 | 4.19e6 | 4.11e6
PIG-B (Phosphatidylinositol glycan anchor biosynthesis class B) | 2 | 3.66e6 | 4.08e6 | 4.14e6
tra2 (transformer 2) | 1 | 3.53e6 | 3.88e6 | 4.13e6
Ets98B (Ets at 98B) | 1 | 3.99e6 | 4.08e6 | 4.10e6
wge (winged eye) | 1 | 3.55e6 | 4.02e6 | 4.04e6
wge (winged eye) | 2 | 3.62e6 | 3.99e6 | 4.23e6
Rel (Relish) | 1 | 3.56e6 | 4.19e6 | 3.92e6
CG15202 | 1 | 3.59e6 | 4.07e6 | 4.05e6
Best3 (Bestrophin 3) | 1 | 3.37e6 | 3.86e6 | 3.71e6
Ssl1 (Suppressor of stem-loop mutation) | 1 | 3.31e6 | 3.75e6 | 3.73e6
CG9044 | 1 | 3.61e6 | 4.14e6 | 4.07e6
ND-20L (NADH dehydrogenase (ubiquinone) 20 kDa subunit-like) | 1 | 3.65e6 | 4.18e6 | 4.08e6
stac (staccato) | 1 | 3.58e6 | 4.07e6 | 4.04e6
stac (staccato) | 2 | 3.39e6 | 3.81e6 | 3.79e6
stac (staccato) | 3 | 3.41e6 | 3.87e6 | 3.95e6
CG13460 | 1 | 3.63e6 | 4.15e6 | 4.06e6
Khc (Kinesin heavy chain) | 1 | 3.64e6 | 4.08e6 | 4.19e6
CG7367 | 1 | 3.50e6 | 3.93e6 | 4.01e6
CG15754 | 1 | 3.48e6 | 4.00e6 | 3.88e6
T48 (Transcript 48) | 1 | 3.56e6 | 4.06e6 | 4.01e6
jub (Ajuba LIM protein) | 1 | 3.45e6 | 3.82e6 | 4.04e6
fiz (fezzik) | 1 | 3.57e6 | 3.99e6 | 3.70e6
CG34242 | 1 | 3.42e6 | 3.86e6 | 3.90e6
mRpL23 (mitochondrial ribosomal protein L23) | 1 | 3.63e6 | 4.17e6 | 4.02e6
CG30379 | 1 | 3.44e6 | 3.94e6 | 3.84e6
CG14367 | 1 | 3.76e6 | 4.29e6 | 4.24e6
twr (twisted bristles roughened eye) | 1 | 3.61e6 | 4.06e6 | 4.12e6
CG17819 | 1 | 3.61e6 | 3.98e6 | 4.20e6
CAP | 1 | 3.57e6 | 3.98e6 | 4.08e6
CAP | 2 | 3.57e6 | 4.11e6 | 3.99e6
CAP | 3 | 3.48e6 | 4.01e6 | 3.90e6
CAP | 4 | 3.70e6 | 4.10e6 | 4.17e6
CAP | 5 | 3.55e6 | 3.97e6 | 4.07e6
CG12692 | 1 | 3.53e6 | 4.23e6 | 3.80e6
CG43322 | 1 | 3.45e6 | 3.86e6 | 3.95e6
CG43736 + CG33692 (retired record) | 1 | 3.67e6 | 4.07e6 | 4.25e6
CG43736 + CG33692 (retired record) | 2 | 3.78e6 | 4.20e6 | 4.41e6
CG32052 | 1 | 3.54e6 | 3.98e6 | 4.05e6
Crk (Crk oncogene) | 1 | 3.56e6 | 4.10e6 | 3.98e6
crim (crimpled) | 1 | 3.57e6 | 4.04e6 | 4.06e6
